Source: the supplement of paper PMC12067093, “Discovery and optimisation of a covalent ligand for TRIM25 and its application to targeted protein ubiquitination” (Chemical Science, 2025)
Some of the results follow.

The chains behind the UniProt entries cited, without tags or fusion partners. Where a name states a change or a piece, a line headed by the entry shows the natural chain unless it says otherwise.
UniProt Q15650: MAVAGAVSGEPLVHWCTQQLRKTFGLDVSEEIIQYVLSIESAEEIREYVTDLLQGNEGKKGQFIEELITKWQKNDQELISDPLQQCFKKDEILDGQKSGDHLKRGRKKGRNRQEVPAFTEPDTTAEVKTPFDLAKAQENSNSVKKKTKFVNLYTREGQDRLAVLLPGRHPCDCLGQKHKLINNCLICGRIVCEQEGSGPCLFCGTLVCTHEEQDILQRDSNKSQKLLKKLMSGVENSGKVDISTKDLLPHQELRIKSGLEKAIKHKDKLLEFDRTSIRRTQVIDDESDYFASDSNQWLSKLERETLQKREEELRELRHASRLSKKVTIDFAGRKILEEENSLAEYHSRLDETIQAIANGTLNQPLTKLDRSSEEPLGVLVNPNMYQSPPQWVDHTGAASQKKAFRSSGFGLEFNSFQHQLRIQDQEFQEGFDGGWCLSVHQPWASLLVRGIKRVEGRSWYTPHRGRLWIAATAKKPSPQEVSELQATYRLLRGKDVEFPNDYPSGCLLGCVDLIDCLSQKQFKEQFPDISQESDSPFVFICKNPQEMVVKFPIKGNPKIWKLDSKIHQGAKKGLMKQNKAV
UniProt Q9UL33, whole entry, looked up: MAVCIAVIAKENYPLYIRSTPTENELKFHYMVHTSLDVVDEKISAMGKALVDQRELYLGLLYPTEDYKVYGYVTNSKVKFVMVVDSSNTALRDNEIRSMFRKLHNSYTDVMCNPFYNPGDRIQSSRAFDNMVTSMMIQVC
UniProt Q14669: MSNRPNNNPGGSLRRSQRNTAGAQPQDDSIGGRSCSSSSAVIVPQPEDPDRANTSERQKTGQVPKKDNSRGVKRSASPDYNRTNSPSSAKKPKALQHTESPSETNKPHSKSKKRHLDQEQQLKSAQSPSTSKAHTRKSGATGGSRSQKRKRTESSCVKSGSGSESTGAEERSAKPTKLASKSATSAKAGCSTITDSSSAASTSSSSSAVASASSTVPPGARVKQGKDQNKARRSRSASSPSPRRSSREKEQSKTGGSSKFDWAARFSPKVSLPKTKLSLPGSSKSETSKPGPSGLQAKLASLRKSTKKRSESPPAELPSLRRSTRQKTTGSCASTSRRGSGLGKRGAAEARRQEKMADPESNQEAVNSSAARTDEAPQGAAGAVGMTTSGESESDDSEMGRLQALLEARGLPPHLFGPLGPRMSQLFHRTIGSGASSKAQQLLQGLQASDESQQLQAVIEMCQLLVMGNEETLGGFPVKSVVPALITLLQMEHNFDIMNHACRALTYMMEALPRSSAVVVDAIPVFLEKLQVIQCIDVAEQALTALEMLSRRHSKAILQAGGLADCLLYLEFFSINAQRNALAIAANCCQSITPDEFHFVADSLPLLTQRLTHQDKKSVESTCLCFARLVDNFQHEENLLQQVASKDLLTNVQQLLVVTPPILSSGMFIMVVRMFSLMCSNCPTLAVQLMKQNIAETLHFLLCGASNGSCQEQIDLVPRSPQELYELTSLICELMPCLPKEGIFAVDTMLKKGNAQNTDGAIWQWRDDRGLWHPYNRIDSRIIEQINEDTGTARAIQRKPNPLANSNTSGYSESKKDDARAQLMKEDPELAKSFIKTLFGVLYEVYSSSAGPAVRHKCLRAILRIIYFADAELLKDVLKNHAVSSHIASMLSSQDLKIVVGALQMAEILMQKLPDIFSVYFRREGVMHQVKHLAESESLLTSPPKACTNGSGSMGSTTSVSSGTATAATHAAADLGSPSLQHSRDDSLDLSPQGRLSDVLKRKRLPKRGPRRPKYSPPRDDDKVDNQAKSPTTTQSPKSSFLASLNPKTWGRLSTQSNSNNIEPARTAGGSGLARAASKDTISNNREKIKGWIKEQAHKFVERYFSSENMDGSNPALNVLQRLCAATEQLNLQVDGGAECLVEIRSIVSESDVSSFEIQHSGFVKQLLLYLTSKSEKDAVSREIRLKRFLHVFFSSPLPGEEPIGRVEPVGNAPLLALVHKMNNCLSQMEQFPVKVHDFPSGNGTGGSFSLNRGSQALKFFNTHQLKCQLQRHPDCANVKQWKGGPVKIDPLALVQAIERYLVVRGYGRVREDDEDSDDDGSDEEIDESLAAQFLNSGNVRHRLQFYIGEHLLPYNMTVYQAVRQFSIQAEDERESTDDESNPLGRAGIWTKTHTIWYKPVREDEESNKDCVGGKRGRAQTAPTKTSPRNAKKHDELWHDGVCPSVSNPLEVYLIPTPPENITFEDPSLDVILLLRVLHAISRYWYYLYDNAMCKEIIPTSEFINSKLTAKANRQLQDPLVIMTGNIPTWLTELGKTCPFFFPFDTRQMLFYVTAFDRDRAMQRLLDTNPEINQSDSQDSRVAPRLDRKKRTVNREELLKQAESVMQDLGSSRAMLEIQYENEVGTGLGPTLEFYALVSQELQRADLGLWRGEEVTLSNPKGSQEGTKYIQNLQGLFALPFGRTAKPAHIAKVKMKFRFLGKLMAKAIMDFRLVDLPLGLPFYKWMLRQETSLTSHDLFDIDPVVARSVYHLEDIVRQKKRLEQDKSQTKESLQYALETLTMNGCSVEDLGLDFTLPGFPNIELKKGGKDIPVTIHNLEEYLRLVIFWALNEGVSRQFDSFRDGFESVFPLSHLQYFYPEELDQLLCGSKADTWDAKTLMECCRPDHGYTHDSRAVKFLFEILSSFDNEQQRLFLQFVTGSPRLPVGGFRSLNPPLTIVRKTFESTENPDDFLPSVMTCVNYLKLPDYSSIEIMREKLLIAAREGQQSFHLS
UniProt O15164: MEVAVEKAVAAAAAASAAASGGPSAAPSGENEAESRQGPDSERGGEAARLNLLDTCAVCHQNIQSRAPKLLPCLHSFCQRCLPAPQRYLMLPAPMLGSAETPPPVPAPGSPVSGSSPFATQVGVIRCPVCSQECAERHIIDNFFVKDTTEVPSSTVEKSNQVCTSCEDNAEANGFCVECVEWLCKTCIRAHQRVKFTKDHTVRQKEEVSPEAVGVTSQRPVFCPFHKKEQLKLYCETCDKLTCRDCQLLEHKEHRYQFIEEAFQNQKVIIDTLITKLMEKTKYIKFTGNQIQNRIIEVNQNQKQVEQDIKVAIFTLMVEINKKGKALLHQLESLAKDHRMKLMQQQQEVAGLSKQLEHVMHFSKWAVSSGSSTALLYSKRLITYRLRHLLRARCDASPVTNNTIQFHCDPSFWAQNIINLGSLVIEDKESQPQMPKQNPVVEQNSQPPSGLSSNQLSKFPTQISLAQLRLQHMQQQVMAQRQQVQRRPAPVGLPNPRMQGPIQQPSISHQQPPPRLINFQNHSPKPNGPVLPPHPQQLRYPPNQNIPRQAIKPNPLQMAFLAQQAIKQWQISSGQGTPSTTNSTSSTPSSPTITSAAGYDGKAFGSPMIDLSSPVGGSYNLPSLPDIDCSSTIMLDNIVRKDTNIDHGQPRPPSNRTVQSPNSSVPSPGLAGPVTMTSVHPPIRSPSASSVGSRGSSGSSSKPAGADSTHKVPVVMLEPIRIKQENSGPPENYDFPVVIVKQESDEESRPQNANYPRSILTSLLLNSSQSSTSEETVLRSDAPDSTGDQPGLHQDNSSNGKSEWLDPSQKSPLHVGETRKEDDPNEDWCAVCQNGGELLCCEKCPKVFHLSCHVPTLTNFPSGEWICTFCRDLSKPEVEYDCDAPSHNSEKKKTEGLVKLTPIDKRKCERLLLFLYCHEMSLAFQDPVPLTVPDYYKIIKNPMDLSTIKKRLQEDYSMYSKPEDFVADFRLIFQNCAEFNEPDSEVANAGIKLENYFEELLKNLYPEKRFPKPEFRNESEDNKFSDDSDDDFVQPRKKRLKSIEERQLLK
UniProt Q7Z392: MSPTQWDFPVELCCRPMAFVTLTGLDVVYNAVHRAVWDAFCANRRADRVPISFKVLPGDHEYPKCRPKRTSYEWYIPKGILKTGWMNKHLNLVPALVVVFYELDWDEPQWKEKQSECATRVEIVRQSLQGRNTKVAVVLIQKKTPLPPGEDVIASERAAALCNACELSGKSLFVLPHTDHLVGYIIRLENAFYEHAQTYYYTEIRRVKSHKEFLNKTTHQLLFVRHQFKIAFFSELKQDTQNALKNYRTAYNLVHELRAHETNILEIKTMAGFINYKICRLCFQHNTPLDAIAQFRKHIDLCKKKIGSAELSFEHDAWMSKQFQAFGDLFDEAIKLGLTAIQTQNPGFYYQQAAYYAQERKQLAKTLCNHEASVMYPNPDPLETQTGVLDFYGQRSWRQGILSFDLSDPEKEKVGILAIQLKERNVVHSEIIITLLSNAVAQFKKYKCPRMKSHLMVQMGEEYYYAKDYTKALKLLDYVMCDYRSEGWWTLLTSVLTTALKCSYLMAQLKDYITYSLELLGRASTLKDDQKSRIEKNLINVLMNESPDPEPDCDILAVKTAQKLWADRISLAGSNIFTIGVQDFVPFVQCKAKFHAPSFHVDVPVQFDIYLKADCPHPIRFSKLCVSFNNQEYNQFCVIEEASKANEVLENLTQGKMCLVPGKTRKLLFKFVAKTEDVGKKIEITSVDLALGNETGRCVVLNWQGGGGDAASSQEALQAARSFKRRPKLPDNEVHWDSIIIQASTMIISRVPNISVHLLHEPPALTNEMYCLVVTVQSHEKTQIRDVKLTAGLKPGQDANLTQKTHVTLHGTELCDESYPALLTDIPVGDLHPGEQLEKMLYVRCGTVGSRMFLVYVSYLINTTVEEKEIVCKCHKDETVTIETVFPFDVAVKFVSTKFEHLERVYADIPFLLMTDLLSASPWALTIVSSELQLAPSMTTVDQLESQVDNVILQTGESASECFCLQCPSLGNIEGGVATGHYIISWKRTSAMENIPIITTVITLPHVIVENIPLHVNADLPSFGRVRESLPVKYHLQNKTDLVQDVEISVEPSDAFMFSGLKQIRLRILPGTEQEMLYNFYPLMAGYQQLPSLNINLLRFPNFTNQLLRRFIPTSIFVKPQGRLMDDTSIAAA
UniProt P29144: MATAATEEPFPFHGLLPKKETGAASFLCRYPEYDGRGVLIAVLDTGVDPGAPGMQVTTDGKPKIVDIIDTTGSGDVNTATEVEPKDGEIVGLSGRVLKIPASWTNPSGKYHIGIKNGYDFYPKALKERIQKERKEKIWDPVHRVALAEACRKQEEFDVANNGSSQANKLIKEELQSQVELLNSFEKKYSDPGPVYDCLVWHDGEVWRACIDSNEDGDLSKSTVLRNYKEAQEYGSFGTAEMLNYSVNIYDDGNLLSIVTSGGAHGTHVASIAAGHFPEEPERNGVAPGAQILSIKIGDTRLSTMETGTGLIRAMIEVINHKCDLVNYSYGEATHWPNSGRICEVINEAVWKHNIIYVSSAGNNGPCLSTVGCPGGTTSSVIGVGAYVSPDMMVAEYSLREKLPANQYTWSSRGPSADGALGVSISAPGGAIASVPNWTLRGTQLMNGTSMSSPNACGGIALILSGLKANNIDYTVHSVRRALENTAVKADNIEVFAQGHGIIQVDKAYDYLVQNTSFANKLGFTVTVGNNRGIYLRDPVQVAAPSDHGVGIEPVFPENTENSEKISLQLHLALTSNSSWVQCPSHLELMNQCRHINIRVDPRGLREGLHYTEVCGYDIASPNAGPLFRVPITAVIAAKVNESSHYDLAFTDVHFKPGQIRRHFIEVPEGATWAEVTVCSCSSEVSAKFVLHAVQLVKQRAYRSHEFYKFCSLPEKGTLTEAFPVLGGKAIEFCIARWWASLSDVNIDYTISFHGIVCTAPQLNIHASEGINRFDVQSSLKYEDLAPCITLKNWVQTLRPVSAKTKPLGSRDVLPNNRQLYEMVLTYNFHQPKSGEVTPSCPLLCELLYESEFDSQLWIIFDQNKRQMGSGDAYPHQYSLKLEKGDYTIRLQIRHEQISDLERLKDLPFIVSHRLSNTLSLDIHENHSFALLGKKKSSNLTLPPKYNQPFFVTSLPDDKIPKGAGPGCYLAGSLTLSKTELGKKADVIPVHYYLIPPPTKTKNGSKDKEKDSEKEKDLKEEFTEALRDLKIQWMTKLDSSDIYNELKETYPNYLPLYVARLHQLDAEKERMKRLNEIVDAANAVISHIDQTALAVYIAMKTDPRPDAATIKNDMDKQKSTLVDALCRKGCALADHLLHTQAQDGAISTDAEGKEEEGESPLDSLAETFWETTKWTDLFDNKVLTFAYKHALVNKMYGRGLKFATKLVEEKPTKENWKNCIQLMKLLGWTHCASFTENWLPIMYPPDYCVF
UniProt Q7L0Y3: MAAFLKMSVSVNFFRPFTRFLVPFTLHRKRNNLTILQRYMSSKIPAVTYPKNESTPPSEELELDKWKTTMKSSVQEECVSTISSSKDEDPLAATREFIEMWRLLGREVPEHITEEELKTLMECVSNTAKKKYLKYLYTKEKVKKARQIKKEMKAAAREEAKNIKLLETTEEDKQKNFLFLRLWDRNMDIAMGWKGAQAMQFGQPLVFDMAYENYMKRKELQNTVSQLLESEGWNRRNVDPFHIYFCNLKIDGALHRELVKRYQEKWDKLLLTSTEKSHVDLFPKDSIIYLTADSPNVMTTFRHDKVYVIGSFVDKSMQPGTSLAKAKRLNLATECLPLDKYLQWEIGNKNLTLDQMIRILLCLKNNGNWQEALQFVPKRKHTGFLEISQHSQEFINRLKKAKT

Compound: Cc1cc(ccc1-c1ccccc1)C(=O)N1CCCN(CC1)C(=O)CCl [compound 10]
Test: probe-labelled cysteine peptide fold change vs DMSO (competition) (log2 fold change); higher = less target engagement (more negative = stronger competition)
Settings: THP-1, incubation time: 4 h
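Note: competitive profiling in live THP-1 cells: cysteine peptides tagged with an iodoacetamide desthiobiotin (IA-DTB) probe, intensity after compound treatment relative to DMSO-treated cells.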

Target	probe-labelled cysteine peptide fold change (10 µM)	probe-labelled cysteine peptide fold change (50 µM)
TRIP4_Q15650_171+173_LAVLLPGRHPCDCLGQK (UniProt Q15650)	-0.173	-0.178
TRIP6_Q15654_368_AYHPGCFTCVVCHR (UniProt Q15654)	0.0578	-0.0809
TRIM25_Q14258_107_ASAPSPNAQVACDHCLK (UniProt Q14258)	0.147	-0.0942
TRIM21_P19474_114_ALCWVCAQSR (UniProt P19474)	0.148	0.024
TRAPPC2L_Q9UL33_112_LHNSYTDVMCNPFYNPGDR (UniProt Q9UL33)	-0.0714	0.0356
TRAPPC8_Q9Y2L5_505_CVLLSAELLK (UniProt Q9Y2L5)	0.11	0.225
TRMT1L_Q7Z2T5_491_KIQYLIHCQWCEER (UniProt Q7Z2T5)	-0.0601	-0.0491
TRIM34_Q9BYJ4_239_ELISDVECR (UniProt Q9BYJ4)	-0.253	-0.494
TPX2_Q9ULW0_301_GCTIVK (UniProt Q9ULW0)	0.583	0.294
TREX1_Q9NSU2_35_VTELCLLAVHR (UniProt Q9NSU2)	0.154	0.0613
TRIM13_O60858_129_HVFCSIEDAYAQER (UniProt O60858)	0.0513	0.747
TRMT1L_Q7Z2T5_265_QLIFCTLAALAEER (UniProt Q7Z2T5)	0.109	0.218
TRIP12_Q14669_1538_TCPFFFPFDTR (UniProt Q14669)	0.173	0.322
TRMT2A_Q8IZ69_463_VIGVELCPEAVEDAR (UniProt Q8IZ69)	-0.181	-1.16
TRIM24_O15164_127+134_CPVCSQECAER (UniProt O15164)	0.118	-0.0216
TRERF1_Q96PN7_1065_QKPGGTQSGYCSVK (UniProt Q96PN7)	-0.0802	-0.55
TPR_P12270_1127_AESQLLECK (UniProt P12270)	0.0505	0.0568
TRMT1L_Q7Z2T5_419_RHYGCNIVR (UniProt Q7Z2T5)	0.0193	0.0906
TRAPPC11_Q7Z392_553_NLINVLMNESPDPEPDCDILAVK (UniProt Q7Z392)	0.135	0.231
TRIM56_Q9BRZ2_202_LDPHLDHPCLPLAEAVR (UniProt Q9BRZ2)	-0.0566	-0.0987
TPP2_P29144_197_YSDPGPVYDCLVWHDGEVWR (UniProt P29144)	0.0898	0.493

Single entries from the entries so far:
TRAPPC2L_Q9UL33_112_LHNSYTDVMCNPFYNPGDR (UniProt Q9UL33) – probe-labelled cysteine peptide fold change (10 µM): -0.0714
TRIP6_Q15654_368_AYHPGCFTCVVCHR (UniProt Q15654) – probe-labelled cysteine peptide fold change (50 µM): -0.0809

More entries.

Target	probe-labelled cysteine peptide fold change (10 µM)	probe-labelled cysteine peptide fold change (50 µM)
TRAF2_Q12933_303_VAMTAEACSR (UniProt Q12933)	0.0164	0.0612
TRIM25_Q14258_119_TCLVCMASFCQEHLQPHFDSPAFQDHPLQPPVR (UniProt Q14258)	0.371	0.313
TRAPPC11_Q7Z392_615_ADCPHPIR (UniProt Q7Z392)	0.126	0.142
TRIM25_Q14258_174+179_LREFFCPEHSECICHICLVEHK (UniProt Q14258)	0.00201	-0.362
TPP2_P29144_197_KYSDPGPVYDCLVWHDGEVWR (UniProt P29144)	-0.0978	-0.234
TRIM25_Q14258_179_LREFFCPEHSECICHICLVEHK (UniProt Q14258)	0.0299	0.0604
TREX1_Q9NSU2_77_ACSPAASEITGLSTAVLAAHGR (UniProt Q9NSU2)	0.116	0.292
TRANK1_O15050_2361_THLCFIR (UniProt O15050)	-0.108	0.147
TRAFD1_O14545_109_EHEDYCGAR (UniProt O14545)	-0.0369	0.1
TRAFD1_O14545_90_LAVCQHCDLELSILK (UniProt O14545)	0.19	-0.255
TRIM28_Q13263_221_HEPLVLFCESCDTLTCR (UniProt Q13263)	0.0644	0.275
TRIM21_P19474_359_EAWDLGVCR (UniProt P19474)	0.0897	0.107
TRAF2_Q12933_182_AHHEVCPK (UniProt Q12933)	0.048	-0.202
TRIM21_P19474_285_TCAVHITLDPDTANPWLILSEDRR (UniProt P19474)	0.135	0.137
TRAPPC8_Q9Y2L5_1074_HTAIICTSR (UniProt Q9Y2L5)	0.0487	0.328
TRIR_Q9BQ61_165_AHQCGDDDK (UniProt Q9BQ61)	-0.061	-0.491
TRAF3_Q13114_141_NDCHFEELPCVRPDCK (UniProt Q13114)	-0.255	-0.368
TRIM13_O60858_106_GHLGQPLNIFCLTDMQLICGICATR (UniProt O60858)	0.0739	-0.215
TRIM14_Q14142_20_SELVEGCGWR (UniProt Q14142)	-0.0963	-0.468
TRIM36_Q9NQ86_499_GSICSPCSR (UniProt Q9NQ86)	-0.137	-0.203
TRA2B_P62995_119_ANPDPNCCLGVFGLSLYTTER (UniProt P62995)	0.163	0.111

Target	probe-labelled cysteine peptide fold change (10 µM)	probe-labelled cysteine peptide fold change (50 µM)
TRMT10C_Q7L0Y3_246_RNVDPFHIYFCNLK (UniProt Q7L0Y3)	0.156	0.0708
TRMT10C_Q7L0Y3_78_SSVQEECVSTISSSKDEDPLAATR (UniProt Q7L0Y3)	-0.141	-0.518
TPP2_P29144_710_FCSLPEK (UniProt P29144)	-0.0916	0.124
TRMT1_Q9NXH9_387_FSAACGPPVTPECEHCGQR (UniProt Q9NXH9)	0.0848	-0.116
TPP2_P29144_614_EGLHYTEVCGYDIASPNAGPLFR (UniProt P29144)	-0.168	-0.0644
TRIM36_Q9NQ86_363_ETDQSCFVQTAK (UniProt Q9NQ86)	-0.162	-0.137
TRAPPC11_Q7Z392_117_QSECATR (UniProt Q7Z392)	-0.115	0.0706
TRA2A_Q13595_120_ANPDPNTCLGVFGLSLYTTER (UniProt Q13595)	-0.000107	0.161
TRAF6_Q9Y4K3_85_EAVQTPCGHR (UniProt Q9Y4K3)	0.0336	0.019
TRAPPC8_Q9Y2L5_548_SALLLEQAAHCFINMK (UniProt Q9Y2L5)	-0.0996	0.223
TRMT2A_Q8IZ69_225_ACCPLEGVRPSPQQTEYR (UniProt Q8IZ69)	-0.334	-0.747
TRAF6_Q9Y4K3_73_YECPICLMALR (UniProt Q9Y4K3)	0.0869	0.0893
TRAPPC8_Q9Y2L5_339_KGNTGIIHGACLTLTDHDR (UniProt Q9Y2L5)	0.0537	0.0149
TRIP12_Q14669_1411_DCVGGK (UniProt Q14669)	-0.186	-0.298
TRIP4_Q15650_541_EQFPDISQESDSPFVFICK (UniProt Q15650)	0.0917	-0.191
TRIM24_O15164_134_CPVCSQECAER (UniProt O15164)	-0.00949	0.167
TRIM25_Q14258_110_ASAPSPNAQVACDHCLK (UniProt Q14258)	-0.0981	-0.283
TRAP1_Q12931_501_NIYYLCAPNR (UniProt Q12931)	-0.0461	0.108
TRIM25_Q14258_506_FTYCSQVLGLHCYK (UniProt Q14258)	-1.09	-4.87
TRIM24_O15164_223_EEVSPEAVGVTSQRPVFCPFHK (UniProt O15164)	0.000787	0.25
TRIM36_Q9NQ86_53_ELFTHPLILPCQHSICHK (UniProt Q9NQ86)	0.112	0.018

Target	probe-labelled cysteine peptide fold change (10 µM)	probe-labelled cysteine peptide fold change (50 µM)
TRAP1_Q12931_573_SPAAECLSEK (UniProt Q12931)	0.0623	0.307
TRAFD1_O14545_64_SDMETHMAAEHCQVTCK (UniProt O14545)	-0.0569	-0.29
TRAPPC13_A5PLN9_127_LNLSASNAAVAELKPDCCIDDVIHHEVK (UniProt A5PLN9)	-0.131	-0.00889
TPX2_Q9ULW0_145_CATPVIIDEILPSK (UniProt Q9ULW0)	-0.416	-0.0813
TRIM33_Q9UPN9_849_IEPADMNESCK (UniProt Q9UPN9)	-0.217	-0.435
TRABD_Q9H4I3_287_CVPSVVVGVVGMGHVPGIEK (UniProt Q9H4I3)	-0.199	-0.123
TRIT1_Q9H3H1_298_CTLETSNQLLK (UniProt Q9H3H1)	-0.177	-0.245
TRAPPC10_P48553_916_CMVTTDHK (UniProt P48553)	-0.149	-0.45
TRIM25_Q14258_174+176_EFFCPEHSECICHICLVEHK (UniProt Q14258)	-0.0161	-0.0842
TRMT2A_Q8IZ69_260_CEFLVGVGVDGEDNTVGCR (UniProt Q8IZ69)	-0.239	0.16
TRANK1_O15050_1158_NHVLCQEVQR (UniProt O15050)	-0.266	-0.0122
TRAP1_Q12931_573_SPAAECLSEKETEELMAWMR (UniProt Q12931)	-0.236	-0.989
TRAF3IP3_Q9Y228_508_KLQHCR (UniProt Q9Y228)	0.235	0.0867
TRIM25_Q14258_157_CSQHNR (UniProt Q14258)	0.102	-0.0362
TRAF2_Q12933_124_EYESCHEGR (UniProt Q12933)	-0.114	-0.518
TRIM25_Q14258_174_EFFCPEHSECICHICLVEHK (UniProt Q14258)	0.0389	0.145
TREX1_Q9NSU2_208_LYGQSPPDSHTAEGDVLALLSICQWRPQALLR (UniProt Q9NSU2)	0.283	0.219
TPX2_Q9ULW0_594_NVTQIEPFCLETDRR (UniProt Q9ULW0)	0.612	0.614
TRIP12_Q14669_332_TTGSCASTSR (UniProt Q14669)	-0.0703	-0.446
TRMT1L_Q7Z2T5_186_MGAHYHCIICSATITR (UniProt Q7Z2T5)	0.0705	0.31
TRIM28_Q13263_229_HEPLVLFCESCDTLTCR (UniProt Q13263)	0.0282	-0.0171

Reprinted at random: 2 records from the list.
Target	probe-labelled cysteine peptide fold change (10 µM)	probe-labelled cysteine peptide fold change (50 µM)
TRIM36_Q9NQ86_363_ETDQSCFVQTAK (UniProt Q9NQ86)	-0.162	-0.137
TRABD_Q9H4I3_287_CVPSVVVGVVGMGHVPGIEK (UniProt Q9H4I3)	-0.199	-0.123
